Results of single-concentration screens

By UniProt entry, the sequences of proteins in these tests, tags left out. Residues count along the entry.
UniProt Q4DA54, 1-478: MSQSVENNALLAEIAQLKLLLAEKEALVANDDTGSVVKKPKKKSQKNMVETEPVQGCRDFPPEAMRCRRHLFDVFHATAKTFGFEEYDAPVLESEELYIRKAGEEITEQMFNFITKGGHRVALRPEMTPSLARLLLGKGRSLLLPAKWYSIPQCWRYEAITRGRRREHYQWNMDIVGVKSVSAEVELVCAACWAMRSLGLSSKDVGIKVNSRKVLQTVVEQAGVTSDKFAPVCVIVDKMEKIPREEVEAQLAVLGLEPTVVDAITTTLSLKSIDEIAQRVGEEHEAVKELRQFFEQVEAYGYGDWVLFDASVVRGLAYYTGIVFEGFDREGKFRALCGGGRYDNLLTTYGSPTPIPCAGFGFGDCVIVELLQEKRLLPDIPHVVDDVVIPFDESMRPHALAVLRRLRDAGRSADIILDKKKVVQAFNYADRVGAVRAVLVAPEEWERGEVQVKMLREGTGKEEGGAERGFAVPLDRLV
UniProt P9WNZ1, whole entry: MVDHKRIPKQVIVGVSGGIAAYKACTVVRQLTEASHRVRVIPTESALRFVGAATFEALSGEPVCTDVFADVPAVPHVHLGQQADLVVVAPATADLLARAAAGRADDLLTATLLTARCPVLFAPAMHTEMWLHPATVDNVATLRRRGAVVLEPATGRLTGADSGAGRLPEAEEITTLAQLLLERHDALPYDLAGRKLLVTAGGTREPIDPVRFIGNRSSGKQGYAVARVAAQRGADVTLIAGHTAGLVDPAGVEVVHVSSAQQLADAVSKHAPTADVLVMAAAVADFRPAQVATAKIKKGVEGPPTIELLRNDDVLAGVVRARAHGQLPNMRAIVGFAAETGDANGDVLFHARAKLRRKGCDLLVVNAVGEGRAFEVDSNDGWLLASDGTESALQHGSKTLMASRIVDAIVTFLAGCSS

From ChEMBL document CHEMBL3988442, “University of Dundee, Small-Polar-MMV Screening Library” (2021).

TcHisRS: 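Enzyme assay of histidyl-tRNA synthetase; the read-out is not stated. Target: Histidine-tRNA ligase, Trypanosoma cruzi CL Brener (UniProt Q4DA54). Tested at 30 µM. Direction is inferred from retests: higher values go with stronger inhibition. Of about 69,000 compounds tested this way, about 31 (0.045%) reached 50% or more in at least one test.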
CoaBC: 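Coenzyme A biosynthesis protein CoaBC, Mycobacterium tuberculosis (UniProt P9WNZ1). Enzyme assay of CoaBC with a phosphate dye (Biomol Green) read at 650 nm. Compounds at 30 µM. Direction is inferred from only a few compounds that gave an IC50; most scored high, so higher reads as stronger inhibition. Most strong results did not repeat in a second test. Of about 67,000 compounds tested this way, about 40 (0.06%) reached 50% or more in at least one test.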

Each number is a percent effect as filed. The controls that fix the scale are not given in the record; negative values are as filed. The compounds are a random part of those screened.

Cn1ncc2c1NC(=O)CC2c1cccs1 (stereo unspecified) read TcHisRS: 3.96%; CoaBC: 0.8475%.
COc1ccc(CNC(=O)NCC(=O)NC2CC2)c(C(F)(F)F)c1 read TcHisRS: 3.509%; CoaBC: -0.1148%.
COCCNC(=O)NC1CCN(c2cnn(C)c2)C1 (stereo unspecified) read TcHisRS: 1.064%; CoaBC: 0.2049%.
Cc1cccc(S(=O)(=O)N2C[C@H]3C[C@H](C(=O)NCC4CC4)[C@@H](C2)O3)c1 read TcHisRS: 7.362%.
Cc1ccc(S(=O)(=O)NC(=O)COc2cccc(C(N)=O)c2)s1 read TcHisRS: 4%; CoaBC: 0.2625%.
CC(O)C1CCN(Cc2nccn2CC(F)(F)F)CC1 (stereo unspecified) read TcHisRS: 5.844%; CoaBC: 0.6046%.
COc1ccc(N2CCC(N(C)C(=O)C(C)SC)CC2)cc1 (stereo unspecified) read TcHisRS: 5.806%; CoaBC: 1.691%.
O=C(c1ccccn1)N1CCCC2(CCN(c3ccsc3)C2=O)C1 (stereo unspecified) read TcHisRS: 5.464%; CoaBC: -5.011%.
CCNc1nnc(SC(C(=O)NCc2cccnc2)C(C)C)s1 (stereo unspecified) read TcHisRS: 7.179%; CoaBC: -1.607%.
COc1cc(CNC(=O)CNc2cc(Cl)ccc2OC)ccn1 read TcHisRS: 0%; CoaBC: 6.999%.
CSCC[C@@H]1CN2CCC[C@H]2CN1Cc1cn(C)nc1C read TcHisRS: -5.243%; CoaBC: 5.576%.
Cc1ccc(NC2CCN(C(=O)Cc3c(C)noc3C)CC2)nn1 read TcHisRS: 7.059%; CoaBC: 4.859%.
CCn1ccnc1CN1CCC(Oc2cccc(F)c2)(C(=O)O)CC1 read TcHisRS: -0.8403%; CoaBC: 3.24%.
COCCn1ccnc1C1CCCN(c2ncnc3c(C)csc23)C1 (stereo unspecified) read TcHisRS: 12.66%; CoaBC: 3.846%.
O=C(NCC(O)COc1ccc(C(F)(F)F)cc1)Nc1nncs1 (stereo unspecified) read TcHisRS: 4.95%; CoaBC: 1.574%.
Cc1cc(C)n(C2CCCN(C(=O)c3cccc4[nH]ncc34)C2)n1 (stereo unspecified) read TcHisRS: 8.021%; CoaBC: 3.106%.
O=C(c1ccc2c(c1)CCC2)N1CCN(c2ccc(Cl)cn2)CC1 read TcHisRS: 9.268%; CoaBC: 4.141%.
Cc1cc2ccccc2n1CC(=O)NC(C)C(=O)N1CCOCC1 (stereo unspecified) read TcHisRS: 5.699%; CoaBC: 5.469%.
CC(C)(O)CN1CCN(C(=O)c2cc3ccccc3c(=O)[nH]2)CC1 read TcHisRS: 1.087%; CoaBC: 2.834%.
Cc1ccc(-c2nc(CN3CC(n4nc(C)cc4C)C3)no2)cc1 read TcHisRS: 6.726%; CoaBC: 5.584%.
CCS(=O)(=O)N1CCN(Cc2ccncc2)c2nc(C)ccc2C1 read TcHisRS: 4.202%; CoaBC: 5.071%.
O=C1C(Sc2nnnn2C2CC2)CCN1c1ccccc1F (stereo unspecified) read TcHisRS: 1.657%; CoaBC: 5.804%.
O=C1CSC(c2ccsc2)c2c(n(C3CCOCC3)[nH]c2=O)N1 (stereo unspecified) read TcHisRS: -0.5464%; CoaBC: -4.441%.
Cc1nc(CO[C@@H]2CN(Cc3nccs3)[C@@H]3COC[C@@H]32)cs1 read TcHisRS: 4.386%; CoaBC: 1.11%.
O=C(Nc1cccn(Cc2ccccc2)c1=O)c1ccncc1F read TcHisRS: 3.896%.
Cc1cc(NC(=O)CCN2CCn3c(C)nnc3C2)no1 read TcHisRS: 2.521%; CoaBC: 5.4%.
Cc1ncc(C(=O)N2CC(C(=O)N3CCOCC3)C2)c(C)n1 read TcHisRS: 4.545%; CoaBC: 3.206%.
CC(C1CC1)N(C(=O)CNc1ccc(C#N)cc1)C1CC1 (stereo unspecified) read TcHisRS: 1.478%; CoaBC: 0.9677%.
Cc1nc(C2CCCN(C(=O)c3cc(Cl)c4c(c3)OCO4)C2)no1 (stereo unspecified) read TcHisRS: 6.197%; CoaBC: 3.181%.